Variants at the floor of the assay are shown more often than the library holds them.
B1: tRNA (parent)
chain: GUUCCGUUGGCGUAAUGGUAACGCGUCUCCCUCCUAAGGAGAAGACUGCGGGUUCGAGUCCCGUACGGAACG

Variants of: B1
Assay: yeast fitness relative to wild type (ratio to wild type); higher = fitter; tRNA-Arg(CCU), competitive growth, 37 C, YPD
Method in brief: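 Genotype frequency changes were the basis for Darwinian fitness relative to wild type. The frequencies came from 100-nucleotide paired-end sequencing of gene amplicons from the start population and each end population of pooled yeast strains with tRNA-Arg(CCU) gene variants at the native locus. Competition ran in YPD at 37°C for 24 hours in six replicates, genotypes needed ≥ 100 starting reads, and estimates < 0.5 were set to 0.5.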

| Variant | yeast fitness |
| --- | --- |
| G18C A37G A43U | ≤ 0.5 |
| U3C U7A A21G C30G A36G C46G A57U | ≤ 0.5 |
| U19A C62U | 0.931 |
| G10A U26A A43G A70U | ≤ 0.5 |
| U26A C31A A42G G48A | ≤ 0.5 |
| G50A G52A U59C C66U | ≤ 0.5 |
| G10A C27A A36U A37U G48C G50A C61G A69U | ≤ 0.5 |
| C4U C11G U19C C29U | ≤ 0.5 |
| U3C C24A U26G A43C C62G G63A C66G A69G | ≤ 0.5 |
| C33A A43G A45C U54C C60A | ≤ 0.5 |
| C5U A42G A45U C60G | ≤ 0.5 |
| G23C U28A C55U A65G | ≤ 0.5 |
| U35A G41C G52A | ≤ 0.5 |
| G23C C31A G52A C62A | ≤ 0.5 |
| C11A C49U G51A A65U | ≤ 0.5 |
| G9A A20C G38C A70C | ≤ 0.5 |
| C30U C61G A69C | ≤ 0.5 |
| A15G G52A A57U G58C | ≤ 0.5 |
| C34G A42U G44A A45C G48C U64A | ≤ 0.5 |
| C4U G6A G9A U13C U28C | ≤ 0.5 |
| U7C C31U G50A G68C | ≤ 0.5 |
| U2C U3G G10A A43U | ≤ 0.5 |
| C4A C61U A69G | ≤ 0.5 |
| C5G C22U U28G G52C G68C | ≤ 0.5 |

| Variant | yeast fitness |
| --- | --- |
| C4A U7C C24G C61A C66U | ≤ 0.5 |
| G9C C22U G39A C66U | ≤ 0.5 |
| U7G C27A A45U U53G A65C | ≤ 0.5 |
| G10C C27G U32A | ≤ 0.5 |
| U7A A20C A21G G23A G56A | ≤ 0.5 |
| U3A U19A C33U G52C A65G | ≤ 0.5 |
| C5U U16C U19C U26A C55U | ≤ 0.5 |
| U19C A20U C55U C61G | ≤ 0.5 |
| A36C G38A G58A | 0.562 |
| C5U G18C C22A A70U | ≤ 0.5 |
| C31A A37G A57G | ≤ 0.5 |
| A21G A40G C55A G68A | ≤ 0.5 |
| U2C U19C A37G C49A | ≤ 0.5 |
| U47C A57G C62U | ≤ 0.5 |
| A15C A21C A42C | ≤ 0.5 |
| G41C C49U G68C | ≤ 0.5 |
| C11U A20C C55U C66G | ≤ 0.5 |
| G17A G48A U54C A69C | ≤ 0.5 |
| C5A G17A C30U C49U | ≤ 0.5 |
| U3C G9C C11U C30G A43C U47A | ≤ 0.5 |
| C4G A15C | 0.719 |
| C11U U19C C33G A37U | ≤ 0.5 |
| C27U U35A A36C C66A | ≤ 0.5 |
| A20C A42G | 0.842 |

| Variant | yeast fitness |
| --- | --- |
| U26G C33G U35A C62A | ≤ 0.5 |
| C4U C29U C31U | 0.538 |
| A45G C62A A69C | 0.595 |
| U53G C62U A70G | ≤ 0.5 |
| U2C G10A U13C A21U | ≤ 0.5 |
| U13A C33U G52C A65G | ≤ 0.5 |
| U2G C5G C11G U26A A43G A69C | ≤ 0.5 |
| U32C C61G A69C | ≤ 0.5 |
| U13G U16A G44A C49G | ≤ 0.5 |
| A15G U54C C55G | ≤ 0.5 |
| C4G C34G A40G G56A | ≤ 0.5 |
| A42C A45C G48A A65G | 0.671 |
| U7G C11G C34U G41A C66U | ≤ 0.5 |
| U28C G39C G51C C55G | ≤ 0.5 |
| C22U C31G G67C | 0.653 |
| C11G G52C A57U A69U | ≤ 0.5 |
| C33G A42U G56U C62U | ≤ 0.5 |
| A15U U53C | 0.71 |
| C24A G41A C60G A65G | ≤ 0.5 |
| C22A U26A G52C G67A | ≤ 0.5 |
| U13A U47A U64A | ≤ 0.5 |
| U8A C31A C33G | 0.542 |
| U3A U19A C62U | 0.776 |
| U3C G9A G48C | 0.784 |

| Variant | yeast fitness |
| --- | --- |
| G6A A14G G56U A65U G68C | ≤ 0.5 |
| G10C G41C C62U C66G A70G | ≤ 0.5 |
| U16A G17A C22G C55G G63C | ≤ 0.5 |
| U3A C34U C61U G68C | ≤ 0.5 |
| C4A C34G G41C C49U C62A | ≤ 0.5 |
| U2C U8C U13G A37U C60G A70C | ≤ 0.5 |
| U26A C34U A43U C66G | 0.628 |
| C4G C11G C55G | ≤ 0.5 |
| U35C C55G A70C | ≤ 0.5 |
| U8C C11U C27U C31A U35C C55G C66U A70C | ≤ 0.5 |
| C11A C24U U32A U35C G51A G58A | ≤ 0.5 |
| U2C G50C C60G | ≤ 0.5 |
| G6A A21C C34U | ≤ 0.5 |
| C4U A21C C30A C31G U32C C49U G52C | ≤ 0.5 |
| U3A C27U C31U A40U A45U C49G G63A | ≤ 0.5 |
| G10A C24G C34U | ≤ 0.5 |
| C29G G58A A70C | ≤ 0.5 |
| C46G G50C C61A | ≤ 0.5 |
| G18C C22U C34G | 0.688 |
| A43G G56C G58A | ≤ 0.5 |
| U7G G12A G25A | ≤ 0.5 |
| U7G U32A U35C C61G | ≤ 0.5 |
| C4G C31U C55G G67C | ≤ 0.5 |
| A21G A37G A42C C46G | ≤ 0.5 |

| Variant | yeast fitness |
| --- | --- |
| G10A G39C A40G C66G A69C | ≤ 0.5 |
| G6A G23C C24G C34G U64A | ≤ 0.5 |
| U13A G41C G52A | ≤ 0.5 |
| U2G G6A G23A C29G | ≤ 0.5 |
| C4G C11A C29U C33U U54C | ≤ 0.5 |
| U2A G6A A20C A69G | ≤ 0.5 |
| G6A C11U U13C A45U C46U U53C | ≤ 0.5 |
| G25A C29G U35C A45C C46G | ≤ 0.5 |
| C5G A57C A65C A70C | ≤ 0.5 |
| A20G U28C U32C G68C | ≤ 0.5 |
| A21G C60G A70C | 0.579 |
| A15U U16C G18C C29A | ≤ 0.5 |
| C11A A36G U54G | ≤ 0.5 |
| G9A U32G A40C G41A | ≤ 0.5 |
| C4A G12C U19C C24G A43U G52A C61A | ≤ 0.5 |
| A40U C60A | 0.604 |
| U2C C11U A21C U26C C46G | ≤ 0.5 |
| C11G U32A C66U | ≤ 0.5 |
| U3G G17A C30U A69U | ≤ 0.5 |
| G18A C55A G63C | ≤ 0.5 |
| C24U C34G U59C | ≤ 0.5 |
| C30G A36U G52A | ≤ 0.5 |
| A37C C46G | 0.947 |
| G18C U26A A45G C62A | ≤ 0.5 |

| Variant | yeast fitness |
| --- | --- |
| C31U U47G G63A | ≤ 0.5 |
| U8C C11U C24G G63C G67A | ≤ 0.5 |
| C22G C29G G41C | ≤ 0.5 |
| C24G U32G A36G C60A A65U | ≤ 0.5 |
| C34A U47C G68C | ≤ 0.5 |
| C11A U35G C46A C49U | ≤ 0.5 |
| C4U G6C A14U C24G G48C G67C | ≤ 0.5 |
| G10A U16A C31A G51A U59A | ≤ 0.5 |
| U8A A43G U47A | ≤ 0.5 |
| C31A C33U G48C A57U | ≤ 0.5 |
| U2A A14U A21G C46G A57U A69C | ≤ 0.5 |
| C5U A15U G17C | ≤ 0.5 |
| C4A C5A G12C | ≤ 0.5 |
| U28G A36G C62G | ≤ 0.5 |
| U2A U7A G10A G41C A42U C46A C61G | ≤ 0.5 |
| C4U G12C A20G U47A C49U A57U C61A G68A | ≤ 0.5 |
| G6C U8C C60A C62U | ≤ 0.5 |
| U64C G68C | 0.978 |
| C30U U47A U54C | ≤ 0.5 |
| G17A C22A A37C C66U | ≤ 0.5 |
| G6A C29A C62U | ≤ 0.5 |
| C22U A36C C60G | ≤ 0.5 |
| U3A G9A A14C C55G | ≤ 0.5 |
| U3G C34G A70U | ≤ 0.5 |

| Variant | yeast fitness |
| --- | --- |
| U19A C31A C49U | ≤ 0.5 |
| C30A C62G | 0.662 |
| C11G A14C A37C G44C C60G | ≤ 0.5 |
| G6C U8C A43U C61G C62A | ≤ 0.5 |
| G9C A14G U16G G23A C33A G44A | ≤ 0.5 |
| U35G A37G C49U | ≤ 0.5 |
| G17A C49G G56A C60G | ≤ 0.5 |
| G9C G39A C66G | ≤ 0.5 |
| G23A A36U C49A | ≤ 0.5 |
| G25A A36U A45C U54A | ≤ 0.5 |
| G9C A15U U28G C55G A69U | 0.599 |
| U16G A21G C31U | 0.985 |
| U3A C11G C30G A42U A43G G52C C60G | ≤ 0.5 |
| A14G A45U C60A | ≤ 0.5 |
| C4A G18A G25C C62U | ≤ 0.5 |
| C5A C34G A36G | ≤ 0.5 |
| C11U C29U C46G C62U | ≤ 0.5 |
| C5U C30U A37C A65G A70C | ≤ 0.5 |
| C4U A15C A37G G50C C60G | ≤ 0.5 |
| G6A A21U G48C | ≤ 0.5 |
| C34A A45G A57U C66U | ≤ 0.5 |
| C5A G10U C30U A43C A69C | ≤ 0.5 |
| A42U C60U C61G | ≤ 0.5 |

— the RNAGym collection of RNA variant scans (doi:10.1126/science.aae0568)
